# PubChem BioAssay AID1259254, NCATS – 2017
# Aim: 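Finding genes that stop cells copying their DNA twice in one cycle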 (primary screen)
# System: human HCT116 colorectal cancer cells
# Knock-down reagent: single siRNA against human genes
# Timing: 3 days
# Measurement: 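Nuclei stained with Hoechst and imaged; cell-cycle phase assigned by DNA content; G2 share scaled per plate, non-targeting siRNA 0%, GMNN siRNA 100%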
# Scale: G2 robust z-score and G2 cells, % of GMNN control: higher = more G2 cells, more excess DNA replication; raw share of cells in G2: higher = larger share of cells with G2 DNA content
# Call rule: 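An siRNA counts as active if its G2 robust z-score lies at least 5 MADs above the screen median; here such calls match roughly 38% of GMNN control or more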
# The deposit covers about 59,000 reagents; below is an unselected part. About 1,550 of all reagents (2.6%) were called active. 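G2 share is only a proxy for re-replication; each gene was hit by three separate siRNAs, and active genes were retested.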 Raw values are not corrected between plates. The numbers tell different reagents against one gene apart. Not stated in the record: the amount of reagent.
target,reagent,G2 robust z-score,"G2 cells, % of GMNN control",raw share of cells in G2 (%),Call
FZD3 (GeneID 7976),1,-0.815,-2.77,4.85,inactive
FZD3 (GeneID 7976),2,0.266,4.84,6.21,inactive
FZD3 (GeneID 7976),3,-0.542,-0.849,3.01,inactive
PPP2R5B (GeneID 5526),1,1.96,16.8,10.2,inactive
PPP2R5B (GeneID 5526),2,0.339,5.35,5.92,inactive
PPP2R5B (GeneID 5526),3,1.31,12.2,7.16,inactive
DNAAF10 (GeneID 116143),1,-0.00126,2.96,5.28,inactive
DNAAF10 (GeneID 116143),2,-0.671,-1.75,2.81,inactive
DNAAF10 (GeneID 116143),3,-0.564,-1,1.53,inactive
CYP2F1 (GeneID 1572),1,0.269,4.86,5.77,inactive
CYP2F1 (GeneID 1572),2,4.35,33.6,17.3,inactive
CYP2F1 (GeneID 1572),3,1.33,12.3,9.36,inactive
FOLH1B (GeneID 219595),1,0.998,9.99,9.82,inactive
FOLH1B (GeneID 219595),2,1.01,10.1,7.8,inactive
FOLH1B (GeneID 219595),3,-0.769,-2.44,3.35,inactive
GDA (GeneID 9615),1,0.0752,3.5,6.17,inactive
GDA (GeneID 9615),2,0.325,5.25,7.19,inactive
GDA (GeneID 9615),3,-0.118,2.14,3.93,inactive
THNSL2 (GeneID 55258),1,-1.11,-4.84,2.7,inactive
THNSL2 (GeneID 55258),2,-0.997,-4.05,2.65,inactive
THNSL2 (GeneID 55258),3,7.27,54.1,30.1,active
LOC729369 (GeneID 729369),1,1.62,14.3,9.43,inactive
LOC729369 (GeneID 729369),2,2.35,19.5,9.6,inactive
LOC729369 (GeneID 729369),3,-0.529,-0.751,2.81,inactive
SPZ1 (GeneID 84654),1,-0.494,-0.509,5.68,inactive
SPZ1 (GeneID 84654),2,0.234,4.61,4.42,inactive
SPZ1 (GeneID 84654),3,0.798,8.58,6.33,inactive
ZNF619 (GeneID 285267),1,5.14,39.1,16.6,active
ZNF619 (GeneID 285267),2,-0.294,0.896,3.48,inactive
ZNF619 (GeneID 285267),3,2.76,22.4,11.4,inactive
GYS2 (GeneID 2998),1,-0.735,-2.21,4.84,inactive
GYS2 (GeneID 2998),2,2.58,21.1,11.9,inactive
GYS2 (GeneID 2998),3,-0.537,-0.811,4.75,inactive
VMO1 (GeneID 284013),1,-0.407,0.105,3.08,inactive
VMO1 (GeneID 284013),2,-0.904,-3.39,2.24,inactive
VMO1 (GeneID 284013),3,-0.414,0.0557,3.66,inactive
BABAM1 (GeneID 29086),1,0.692,7.84,6.85,inactive
BABAM1 (GeneID 29086),2,-0.292,0.913,4.89,inactive
BABAM1 (GeneID 29086),3,3.59,28.2,12.2,inactive
ETV3L (GeneID 440695),1,0.27,4.87,5.5,inactive
ETV3L (GeneID 440695),2,-0.996,-4.04,1.88,inactive
ETV3L (GeneID 440695),3,-0.475,-0.377,2.99,inactive
EXOC5P1 (GeneID 644548),1,1.06,10.4,7.61,inactive
EXOC5P1 (GeneID 644548),2,-0.432,-0.0708,3.25,inactive
EXOC5P1 (GeneID 644548),3,-0.252,1.19,3.49,inactive
EMC2 (GeneID 9694),1,-0.569,-1.04,4.81,inactive
EMC2 (GeneID 9694),2,-0.334,0.616,3.41,inactive
EMC2 (GeneID 9694),3,0.482,6.36,7.33,inactive
ARHGAP24 (GeneID 83478),1,-0.908,-3.42,2.97,inactive
ARHGAP24 (GeneID 83478),2,0.00962,3.04,4.36,inactive
ARHGAP24 (GeneID 83478),3,-0.65,-1.61,1.92,inactive
KIF9 (GeneID 64147),1,0.346,5.4,6.19,inactive
KIF9 (GeneID 64147),2,-0.708,-2.01,4.81,inactive
KIF9 (GeneID 64147),3,8.49,62.7,26.5,active
SH3GL2 (GeneID 6456),1,-0.263,1.12,5.45,inactive
SH3GL2 (GeneID 6456),2,0.458,6.19,6.67,inactive
SH3GL2 (GeneID 6456),3,0.013,3.06,4.46,inactive
ME1 (GeneID 4199),1,-0.757,-2.36,4.54,inactive
ME1 (GeneID 4199),2,0.384,5.67,7.55,inactive
ME1 (GeneID 4199),3,0.808,8.65,6.05,inactive
KLF14 (GeneID 136259),1,0.142,3.96,4.46,inactive
KLF14 (GeneID 136259),2,3.75,29.3,13.3,inactive
KLF14 (GeneID 136259),3,-0.759,-2.37,2.69,inactive
GPR65 (GeneID 8477),1,-0.534,-0.791,5.56,inactive
GPR65 (GeneID 8477),2,-1.11,-4.83,2.83,inactive
GPR65 (GeneID 8477),3,3.1,24.8,10.9,inactive
GPR61 (GeneID 83873),1,-1.39,-6.83,3.4,inactive
GPR61 (GeneID 83873),2,-0.514,-0.65,4.29,inactive
GPR61 (GeneID 83873),3,-0.645,-1.57,2.79,inactive

Already shown: an excerpt of the list.
target,reagent,G2 robust z-score,"G2 cells, % of GMNN control",raw share of cells in G2 (%),Call
GYS2 (GeneID 2998),2,2.58,21.1,11.9,inactive
GYS2 (GeneID 2998),3,-0.537,-0.811,4.75,inactive
VMO1 (GeneID 284013),1,-0.407,0.105,3.08,inactive
VMO1 (GeneID 284013),2,-0.904,-3.39,2.24,inactive
VMO1 (GeneID 284013),3,-0.414,0.0557,3.66,inactive
BABAM1 (GeneID 29086),1,0.692,7.84,6.85,inactive
BABAM1 (GeneID 29086),2,-0.292,0.913,4.89,inactive
